In PubChem BioAssay AID624297 (National Center for Advancing Translational Sciences (NCATS), 2012):
Several values for one entry are separate records, joined by “and”; a condition that tells them apart may be missing. Equal entries are not always repeated. Out of some 340,000 compounds screened, about 6,200 (1.8%) were called active. Inconclusive means that the source gave no clear call. Such entries were picked first, then a sample of the others. Calls come from the whole dose curve; as a rule, active = well fitted activation curve with a large enough effect; inconclusive = small, poorly fitted or top-dose-only effect; inactive = no such curve, though single readings can be large or run the other way. Potencies of inconclusive entries are doubtful fits and often do not repeat.
Potency is the fitted concentration of half-maximal effect.

Assay: A quantitative high throughput screen for small molecules that induce DNA re-replication in SW480 colon adenocarcinoma cells. For re-replication activation: % of control where 0% means no effect. Note: nearly all actives have a fitted effect of over 55% in size.
Details: Hoechst DNA content imaging, 48 h; re-replication activation: at 46.1 µM (top of the series) unless noted
How it was run: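 Compounds, transferred as 23 nL by pin tool, were incubated with cells for 48 hr; DNA content per nucleus was then quantified by Hoechst staining and fluorescence plate imaging.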
With `CCC1(c2ccc(F)cc2)NC(=O)NC1=O` (stereo not given) the “re-replication activation” value was inactive: -2.46%. For `C=CCOc1ccc(C2C(C(=O)c3ccco3)=C(O)C(=O)N2c2nnc(C)s2)cc1` (stereo not given), the “re-replication activation” value was inactive: -1.22%. In the case of `O=C(NC1CCCCC1)c1ccc(-c2ccc(Cl)cc2)o1`, the Potency is reported as inconclusive: 0.82 µM [activator, full curve, poor fit]. With `CN1CCN(C(=S)Nc2cccc(S(=O)(=O)N(C)C)c2)CC1` the “re-replication activation” value was inactive: -29.5%. In the case of `Cn1c(=O)oc2cc(S(=O)(=O)Nc3ccc(O)cc3)ccc21`, the “re-replication activation” value is reported as inactive: 7.8%. For `NC(=O)SCC(=O)Nc1ccc(Cl)c(Cl)c1`, the Potency was inconclusive: 20.6 µM [activator, single point]. In the case of `O=C(CNS(=O)(=O)c1ccccc1)NCc1ccccn1`, the “re-replication activation” value is reported as inactive: -0.47%. In the case of `COc1cc(C2CC(c3cccs3)=NN2C(=O)CCl)ccc1OC(F)F` (stereo not given), the “re-replication activation” value is reported as inactive: 25.4%. In the case of `CC1CN(CC(O)COC(c2ccccc2)c2ccccc2)CC(C)O1` (stereo not given), the Potency is reported as inconclusive: 7.31 µM [activator, single point]. For `O=C(O)CCCCCN1C(=O)CSC1=S`, the “re-replication activation” value was inactive: -6.62%. In the case of `Cc1c(F)cccc1NS(=O)(=O)c1ccc2c(c1)c(C)cc(=O)n2C`, the “re-replication activation” value is reported as inactive: 3.36%. In the case of `CC(C)(C)c1ccc(-c2nnc(SCCC#N)n2C2CCCC2)cc1`, the Potency is reported as inconclusive: 32.6 µM [activator, partial curve, poor fit]. In the case of `COc1ccccc1-c1cc(C(=O)N/N=C/c2ccc(C)o2)c2ccccc2n1`, the Potency is reported as inconclusive: 16.4 µM [activator, partial curve, poor fit]. In the case of `O=C(N[C@H]1C/C=C\C(c2ccc(F)cc2)N(Cc2ccccc2)C(=O)C1)OCC1c2ccccc2-c2ccccc21` (stereo not given in full), the “re-replication activation” value is reported as inactive: 5.83%. With `N#C/C(=C/c1ccc(Sc2nc3ccccc3[nH]2)o1)c1cccc(F)c1` the Potency was inconclusive: 29.1 µM [activator, single point]. In the case of `CC1CCCC(NC(=S)Nc2ccc(SC(F)F)cc2)C1C` (stereo not given), the Potency is reported as inconclusive: 29.1 µM [activator, single point]. With `Clc1ccc(CN2CCC(c3nc4ccc(Cl)cc4[nH]3)CC2)cc1` the Potency was inconclusive: 25.9 µM [activator, single point]. With `COc1ccc(CN2CCC(N3CC(C)OC(C)C3)CC2)c(OC)c1` (stereo not given) the Potency was inconclusive: 0.631 µM [activator, partial curve, poor fit]. In the case of `CC1Cc2cc(/C(O)=C3/C(=O)C(=O)N(CCCN4CCOCC4)C3c3ccc(C(C)C)cc3)ccc2O1` (stereo not given), the “re-replication activation” value is reported as inactive: 0.721%. In the case of `COc1cc(/C=C2/C(=O)c3cccc([N+](=O)[O-])c3C2=O)c(Br)cc1O`, the Potency is reported as inconclusive: 20.6 µM [activator, single point]. For `CC(C)(C)NCC(O)COc1ccccc1C(=O)CCc1ccccc1` (stereo not given), the Potency was inconclusive: 29.1 µM [activator, partial curve, poor fit]. For `CN1CC=C2C(C#N)=C(N)C(C#N)(C#N)C(CCc3ccccc3)C2C1` (stereo not given), the “re-replication activation” value was inactive: 5.08%. In the case of `CC(=O)c1cc(C#N)c(NCc2ccccc2)nc1C`, the Potency is reported as inconclusive: 0.731 µM [activator, partial curve, poor fit]. With `CC(C)CCNc1nc(-c2ccco2)c2c(c1C#N)CCCC2` the Potency was inconclusive: 5.8 µM [activator, partial curve, poor fit]. In the case of `Cc1cc(N=Nc2ccc(C)c(N=Nc3cc(C)c(N)cc3N)c2)c(N)cc1N`, the “re-replication activation” value is reported as inactive: -5.83%. In the case of `CC(=O)NCCSc1ccc(S(=O)(=O)N2CCCC2)cn1`, the “re-replication activation” value is reported as inactive: -4.45%. With `CCn1c(CCCOc2ccc(Cl)cc2Cl)nnc1SCC(=O)Nc1cc(F)ccc1C` the “re-replication activation” value was inactive: 12.9%. With `CC(=O)c1ccc(NC(=O)Nc2ncn(Cc3cccc(C)c3)n2)cc1` the “re-replication activation” value was inactive: -2.68%. In the case of `O=C(NCCCN1CCOCC1)c1onc(CSc2ccncc2)c1C(=O)NCCCN1CCOCC1`, the “re-replication activation” value is reported as inactive: 3.18%. With `NC(=O)c1ccccc1NC(=O)COc1ccc2c(c1)OCO2` the Potency was inconclusive: 20.6 µM [activator, single point]. With `CCOc1ccc(S(=O)(=O)N2CCCCC2)cc1NC(=O)Cc1cccs1` the “re-replication activation” value was inactive: -2.09%. For `O=C(CNC(=O)c1ccco1)OCc1ccccc1F`, the “re-replication activation” value was inactive: 5.67%. For `CCc1nc(Nc2ccc3c(c2)OCO3)c2oc3ccccc3c2n1`, the “re-replication activation” value was inactive: 8.49%. With `CC(=O)c1cc2c(cc1NC(=O)C1CCC1)OCO2` the Potency was inconclusive: 1.84 µM [activator, single point]. With `COc1cc(OC)cc(N(C(=O)CNC(=O)c2cccs2)C(C(=O)NCC2CCCO2)c2ccc(OC)c(OC)c2)c1` (stereo not given) the Potency was inconclusive: 20.6 µM [activator, partial curve, poor fit]. In the case of `CCOC(=O)c1oc2ccccc2c1NC(=O)c1ccc(Cl)s1`, the Potency is reported as inconclusive: 32.6 µM [activator, partial curve, poor fit]. For `CCCc1ccc(-c2cc(C(=O)N3CCN(c4ccccn4)CC3)c3ccccc3n2)cc1`, the Potency was inconclusive: 29.1 µM [activator, single point]. With `O=C(NNC(=O)C1CC(c2cccs2)=NO1)Nc1ccccc1` (stereo not given) the “re-replication activation” value was inactive: 2.47%. In the case of `CCCCCn1c(=N)n(CC(O)COc2ccccc2OC)c2ccccc21` (stereo not given), the Potency is reported as inconclusive: 4.11 µM [activator, single point]. In the case of `COC(=O)c1sc2nc(SCc3ccccc3C)n(N)c(=O)c2c1C`, the “re-replication activation” value is reported as inactive: -6.84%. For `Cc1c(C(=O)Nc2ccc(-n3cnnn3)cc2)oc2ccccc12`, the Potency was inconclusive: 16.4 µM [activator, partial curve, poor fit]. With `Oc1ccc(Br)cc1CNc1nccs1` the Potency was inconclusive: 25.9 µM [activator, single point]. With `CCn1nnc(NC(=O)c2ccc([N+](=O)[O-])o2)n1` the Potency was inconclusive: 2.91 µM [activator, full curve]. With `Cc1cnc(NC(=O)CCc2ccccc2)s1` the Potency was active: 13 µM. For `CCOc1ccc(S(=O)(=O)N2CC(=O)Nc3ccccc32)cc1C#N`, the “re-replication activation” value was inactive: -3.74%. For `Cc1ccsc1/C=C1/CN(C)Cc2c1nc1ccccc1c2C(=O)O`, the Potency was inconclusive: 23.1 µM [activator, single point]. With `Cc1cc(-n2c(SCC(=O)Nc3ccc(Br)cc3)nc3n[nH]c(C)c3c2=N)ccc1Cl` the Potency was active: 18.4 µM. With `O=S(=O)(c1cnccc1N1CCN(/N=C/c2ccc(Cl)cc2)CC1)N1CCCCC1` the “re-replication activation” value was inactive: -3.94%. In the case of `Cc1cc(NC(=O)CSc2nnc(CNC(=O)c3c(F)cccc3F)o2)no1`, the “re-replication activation” value is reported as inactive: -30.8%. For `NC(=O)C1CCN(c2nc(-c3ccccc3C(F)(F)F)cs2)CC1`, the “re-replication activation” value was inactive: -0.831%. For `C/C(=N\NC(=O)c1c(Br)c(C)nn1C)c1ccc(NC(=O)c2ccoc2C)cc1`, the “re-replication activation” value was inactive: -189%. With `Cc1cccc(C)c1OCC(=O)N[C@@H](Cc1ccccc1)[C@@H](O)C[C@H](Cc1ccccc1)NC(=O)[C@H](C(C)C)N1CCCNC1=O` the Potency was inconclusive: 37.6 µM [activator, partial curve, poor fit]. With `CCN(CC)S(=O)(=O)c1ccc(N2CCOCC2)c(NC(=O)c2ccccc2F)c1` the “re-replication activation” value was inactive: 9.89%. With `COCCNc1ncnc2c1cnn2Cc1ccccc1Cl` the Potency was inconclusive: 29.1 µM [activator, single point]. With `O=C(COC(=O)c1c2c(nc3ccccc13)/C(=C\c1cccs1)CCC2)Nc1ccccc1Cl` the Potency was active: 14.6 µM and active: 13 µM. For `Cc1ccc(-n2c(-c3ccco3)nc3nc4ccccc4nc32)cc1`, the Potency was active: 1.03 µM. For `COc1ccc(NC(=O)c2cc(S(=O)(=O)N3CCOCC3)ccc2N2CCOCC2)cc1`, the “re-replication activation” value was inactive: 13.8%. For `O=C(N/N=C\C=C\c1ccc2c(c1)OCO2)C1COc2ccccc2O1` (stereo not given), the Potency was inconclusive: 25.9 µM [activator, single point]. For `O=S(=O)(c1ccc2ccccc2c1)N1CCN(C(=S)Nc2ccc(F)c(Cl)c2)CC1`, the “re-replication activation” value was inactive: 2.8%. With `CC(=O)Nc1ccc(N(C(=O)c2ccco2)C(C(=O)NC2CCCC2)c2ccc(N(C)C)cc2)cc1` (stereo not given) the “re-replication activation” value was inactive: -8.97%. With `CCOC(=O)C(C(=O)Nc1ccc(C)cc1)C1CCCCC1` (stereo not given) the Potency was inconclusive: 29.1 µM [activator, single point]. For `CS(=O)(=O)Nc1ccc(C2=NN(C(=O)c3ccco3)C(c3ccco3)C2)cc1` (stereo not given), the Potency was inconclusive: 29.1 µM [activator, single point]. With `CCOc1c(N2CCOCC2)c(=O)c1=O` the Potency was inconclusive: 29.1 µM [activator, single point]. With `Cc1[nH]c2ccccc2c1CCNC(=O)c1ccc2c(c1[N+](=O)[O-])C(=O)c1ccccc1C2=O` the Potency was inconclusive: 29.1 µM [activator, partial curve, poor fit]. In the case of `O=C(CCC1CCCCC1)Nc1nncs1`, the “re-replication activation” value is reported as inactive: 1.61%. For `CCCCNC(=O)C(CC)(ONc1ccccc1C(F)(F)F)c1ccccc1OC` (stereo not given), the Potency was inconclusive: 29.1 µM [activator, single point]. For `CCC(C)[C@H](NC(=O)N1CCC(Cc2ccccc2)CC1)C(=O)O` (stereo not given in full), the Potency was inconclusive: 4.11 µM [activator, single point]. For `CN(C)c1nc(N)nc(CSc2nnnn2-c2ccccc2)n1`, the “re-replication activation” value was inactive: -13.7%. For `N#CC1=C(S)N(c2ccccc2)C2(CCCCC2)NC1=O`, the Potency was inconclusive: 20.6 µM [activator, single point]. With `COc1cc(/C=N/NC(=O)c2cc[n+]([O-])cc2)ccc1O` the “re-replication activation” value was inactive: -1.31%. For `Oc1ccccc1C1=NN(c2ccccc2)C(c2ccc(F)cc2)C1` (stereo not given), the Potency was inconclusive: 20.6 µM [activator, single point]. In the case of `CCC(=O)NC(=S)Nc1ccc(NC(=O)c2ccc(Br)o2)cc1`, the “re-replication activation” value is reported as inactive: 17.2%. With `COc1ccc(C(NC(C)=O)c2nccc3cc(OC)c(OC)cc23)cc1OC` (stereo not given) the Potency was inconclusive: 4.61 µM [activator, partial curve, poor fit]. With `CC1CN(C(=O)Nc2ccc3c(c2)OCO3)CC(C)O1` (stereo not given) the Potency was inconclusive: 14.6 µM [activator, partial curve, poor fit]. With `CSc1nc(-c2ccc(N(C)C)cc2)c(C#N)c(=O)n1C` the Potency was active: 7.31 µM.
